In all, about 400,000 compounds went through this assay and about 13,000 (3.2%) were called active. Inconclusive means that the source gave no clear call. Such entries were picked first, then a sample of the others. Calls come from the whole dose curve; as a rule, active = well fitted cell-killing curve with a large enough effect; inconclusive = small, poorly fitted or top-dose-only effect, or effect the other way; inactive = flat fitted curve, though single readings scatter. Potencies of inconclusive entries are doubtful fits and often do not repeat.
Assay: qHTS assay for MDR1-selective chemotherapeutics: Primary screen using the drug-selected MDR subline cells KB-V1; note: nearly all actives have a fitted effect of over 60% in size
Settings: KB-V1 MDR cells viability, CellTiter-Glo, 72 h; activity change, negative = cytotoxicity: at 46.1 µM (top of the series)
Method in brief: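 Drug-selected KB-V1 cells, grown in DMEM lacking phenol red with 10% FBS, receive compound titrations; after three days at 37 degrees C, surviving cell ATP is quantified by CellTiter-Glo luminescence and responses normalized and curve-fitted.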
% is set by controls: 0 for no effect and ±100 for the full control effect; potency is the fitted concentration of half-maximal effect.

Row | SMILES | Potency | activity change, negative = cytotoxicity
1 | CCn1ncc(/C=N\NC(=O)COc2cc(C)cc(C)c2)c1C | active: 11.6 µM | –
2 | COc1ccc(S(=O)(=O)N(CCc2ccccc2)CC(=O)Nc2ccc(C)c(C)c2)cc1OC | – | inactive: -8.44%
3 | CCC(=O)Nc1nnc(SCc2cc(=O)c3cc(C)ccc3[nH]2)s1 | inconclusive: 16.4 µM [rising, single point] | –
4 | CCCCC1NC(=S)N(C2CCCCC2)C1=O (configuration not stated) | inconclusive: 16.4 µM [cytotoxic, single point] | –
5 | COc1ccc(CCNC(=O)CSc2nc(C)nc3c2oc2ccccc23)cc1OC | inconclusive: 9.2 µM [cytotoxic, partial curve] | –
6 | O=C(Nc1cccc(-c2nc3ccccc3o2)c1)c1ccc(-c2ccc(Br)cc2)o1 | – | inactive: -11.5%
7 | Cc1ccc(S(=O)(=O)N2CCOCC2)cc1NC(=O)COC(=O)c1ccc(Cl)nc1 | – | inactive: 0%
8 | O=S(=O)(/N=C(/Sc1ccccc1)c1ccccc1)c1ccc(Cl)cc1 | inconclusive: 7.31 µM [rising, partial curve, poor fit] | –
9 | Cc1ccc(S(=O)(=O)N2CCC(=O)N(C(COCc3cccc(C)c3)C(C)C)CC2)cc1 (configuration not stated) | inconclusive: 29.1 µM [rising, single point] | –
10 | COc1ccc(-n2nnnc2C(C2CC2)N2CCN(C/C=C/c3ccccc3)CC2)cc1 (configuration not stated) | inconclusive: 29.1 µM [cytotoxic, partial curve, poor fit] | –
11 | Cc1cccc(N2CCN(C(=O)C3CC(=O)N(c4ccc5c(c4)OCCO5)C3)CC2C)c1 (configuration not stated) | inconclusive: 18.4 µM [cytotoxic, single point] | –
12 | O=S1(=O)N=C(N(CCO)/N=C/c2ccc(Br)cc2)c2ccccc21 | – | inactive: 0%
13 | COC(=O)c1cnc(Oc2ccc(NC(=O)NC(=O)c3ccccc3Cl)cc2)cc1C(F)(F)F | inconclusive: 3.26 µM [cytotoxic, partial curve, poor fit] | –
14 | Cc1ccc(S(=O)(=O)N2CCOCC2)s1 | – | inactive: 5.12%
15 | CCN(CC)CCNC(=O)C(Cl)=C1C(Cl)=C(Cl)C(Cl)=C1Cl | inconclusive: 18.4 µM [cytotoxic, single point] | –
16 | Cc1cccc(Cc2nnc(CCC(=O)N(CC3CC3)CC3CCCO3)o2)c1 (configuration not stated) | inconclusive: 29.1 µM [cytotoxic, single point] | –
17 | O=C(c1cccc(S(=O)(=O)N2CCCCC2)c1)N1CCCCC1 | active: 14.6 µM | –
18 | Cc1cc(C)cc(NS(=O)(=O)c2ccc(Oc3ncc(C(F)(F)F)cc3Cl)cc2)c1 | active: 16.4 µM | –
19 | Cc1ccc2nc3c(cc2c1)c(NC(=O)c1ccco1)nn3CC(C)C | – | inactive: -8.12%
20 | CC(=O)Nc1cc(C(=O)NCc2ccco2)ccc1Sc1ccc(F)cc1 | inconclusive: 16.4 µM [cytotoxic, single point] | –
21 | CCCCc1ccc(NC(=O)CSc2nc(=O)n(CCN(CC)CC)c3c2CCCC3)cc1 | active: 25.9 µM | –
22 | O=C(NNC(=S)Nc1cccc(C(F)(F)F)c1)c1cccc(Cl)c1 | inconclusive: 29.1 µM [cytotoxic, single point] | –
23 | O=C(O)c1cn2c3c(ccc(Cl)c3c1=O)OCC2 | inconclusive: 29.1 µM [cytotoxic, single point] | –
24 | COc1cc(/C=C/c2cccc[n+]2C)ccc1OCC(=O)Nc1cccc(Cl)c1 | inconclusive: 29.1 µM [rising, partial curve, poor fit] | –

Compounds listed so far containing fluorine, in the order listed:
Row | SMILES | Potency | activity change, negative = cytotoxicity
13 | COC(=O)c1cnc(Oc2ccc(NC(=O)NC(=O)c3ccccc3Cl)cc2)cc1C(F)(F)F | inconclusive: 3.26 µM [cytotoxic, partial curve, poor fit] | –
18 | Cc1cc(C)cc(NS(=O)(=O)c2ccc(Oc3ncc(C(F)(F)F)cc3Cl)cc2)c1 | active: 16.4 µM | –
20 | CC(=O)Nc1cc(C(=O)NCc2ccco2)ccc1Sc1ccc(F)cc1 | inconclusive: 16.4 µM [cytotoxic, single point] | –
22 | O=C(NNC(=S)Nc1cccc(C(F)(F)F)c1)c1cccc(Cl)c1 | inconclusive: 29.1 µM [cytotoxic, single point] | –

(continued)

Row | SMILES | Potency | activity change, negative = cytotoxicity
25 | COc1ccc(CCC(=O)N2c3ccccc3N=C(c3ccc(C(F)(F)F)cc3)C2C(=O)NC(C)(C)C)cc1 (configuration not stated) | inconclusive: 9.2 µM [cytotoxic, partial curve] | –
26 | COc1ccc(OC)c(NC(=O)Nc2ccc3[nH]ccc3c2)c1 | – | inactive: -4.74%
27 | COc1ccc(NC(=O)CSc2nc3ccccc3nc2N2CCCC2)cc1 | – | inactive: -1.43%
28 | COc1ccc(/C=N/n2c(N)nc(-c3ccccc3)c2-c2ccccc2)cc1 | – | inactive: -12.9%
29 | CC(C)C(=O)N1CCN(c2ccccc2NC(=S)NC(=O)Cc2ccccc2)CC1 | inconclusive: 2.59 µM [cytotoxic, full curve] | –
30 | CCCCCn1c(SCc2cccc(C)c2)nc2c1c(=O)[nH]c(=O)n2C | inconclusive: 20.6 µM [cytotoxic, single point] | –
31 | Cc1ccc(S(=O)(=O)N(CC(=O)N(C)C)c2cccc([N+](=O)[O-])c2)cc1 | inconclusive: 20.6 µM [cytotoxic, single point] | –
32 | CCOC(=O)c1cccc(NC(=O)CCc2c(C)nc3ncnn3c2C)c1 | – | inactive: -2.85%
33 | CC(C)(C)NC(=O)CSc1nnc(-c2ccccc2)c(-c2ccccc2)n1 | – | inactive: -4.12%
34 | CCC(=O)C(C#N)(c1ccc(OC)c(OC)c1)C(C)C (configuration not stated) | – | inactive: 18.2%
35 | CC(C)c1ccc(/C=C/c2ccc(=O)n(C)n2)cc1 | inconclusive: 16.4 µM [cytotoxic, single point] | –
36 | O=C(CSc1nnc(-c2ccccc2)c(-c2ccccc2)n1)NC1CCCCC1 | – | inactive: 4.29%
37 | CCN(CC)c1ccc(/C=N/NC(=S)NCc2ccccc2)cc1 | – | inactive: -13.5%
38 | CCOP(=O)(OCC)/C(=N/OC(=O)c1ccc(Cl)cc1Cl)C(N)=O | inconclusive: 20.6 µM [rising, single point] | –
39 | Cc1c(OC(C)C(=O)NCCCN2CCOCC2)ccc2c1oc(=O)c1ccccc12 (configuration not stated) | inconclusive: 5.17 µM [cytotoxic, full curve, poor fit] | –
40 | CCCCNC(=O)c1onc(CSc2ccc(F)c(F)c2)c1C(=O)O | inconclusive: 29.1 µM [rising, partial curve, poor fit] | –
41 | CCCCOc1ccccc1C1C(C(=O)OC)=CN(CC)C=C1C(=O)OC | – | inactive: -15.5%
42 | Cc1cc(Br)ccc1N=C1C(=O)Nc2ccccc21 | inconclusive: 29.1 µM [rising, single point] | –
43 | Cc1ccc(C)c(S(=O)(=O)N2CCCOC2CNC(=O)C(=O)NC2CCCC2)c1 (configuration not stated) | inconclusive: 20.6 µM [cytotoxic, single point] | –
44 | CC(C)n1c(-c2ccccc2F)n[nH]c1=S | – | inactive: 17.7%
45 | CCOC(=O)c1[nH]c(C)c(C(=O)Nc2ccccc2F)c1C | active: 3.66 µM | –
46 | CCn1c(SCC(=O)Nc2ccc(Cl)cc2)nc2nc3c(cc2c1=O)CCCC3 | active: 0.517 µM | –
47 | COc1ccc2c(c1)CCc1c(C(=O)Nc3ccc(F)c(Cl)c3)noc1-2 | inconclusive: 13 µM [rising, partial curve, poor fit] | –
48 | CCCc1c(C(=O)N/N=C(\C)c2ccccc2O)nnn1-c1nonc1N | – | inactive: -16.8%

Row | SMILES | Potency | activity change, negative = cytotoxicity
49 | COc1ccc(NC(=O)CSc2nc3ccccc3c(=O)n2CCNC(C)=O)c(OC)c1 | inconclusive: 29.1 µM [cytotoxic, partial curve, poor fit] | –
50 | CCCCN(CC)S(=O)(=O)N1CCC(C(=O)NCc2ccc(F)cc2)CC1 | active: 16.4 µM | –
51 | COC(=O)c1cc2c(C)c(C)c3ccccn3c-2c1C(=O)OC | inconclusive: 23.1 µM [cytotoxic, single point] | –
52 | CCNc1c(NC(=O)C2CCC(C)CC2)c(=O)oc2ccccc12 (configuration not stated) | – | inactive: -6.86%
53 | COc1cc(/C=N/NC(=O)C(C)Nc2n[nH]c(=O)[nH]c2=O)ccc1O (configuration not stated) | inconclusive: 18.4 µM [rising, single point] | –
54 | Oc1ccc(-c2cnns2)c(O)c1 | – | inactive: -1.51%
55 | Cc1c(Cl)cccc1NC(=O)COC(=O)Cc1ccsc1 | – | inconclusive: -2.43%
56 | Cc1cc(C)c(C#N)c(N2CCN(Cc3ccccc3)CC2)n1 | – | inactive: -25.1%
57 | CCN(CC(=O)Nc1c(F)cccc1F)C(=O)C1=COCCO1 | – | inconclusive: 31.6%
58 | CCOC(=O)N1CCC(n2c(SCC(=O)N3CCC(C)CC3)nc3ccccc3c2=O)CC1 | active: 20.6 µM | –
59 | CCOc1ccc2[nH]c3c(c2c1)CNCC3 | inconclusive: 29.1 µM [rising, single point] | –
60 | Cc1ccc(OCC(=O)N/N=C/C=C/c2ccco2)c(Br)c1 | – | inactive: -6.94%
61 | c1ccc2c(c1)ccc1[nH]c3c(c12)CCCC3 | inconclusive: 0.731 µM [cytotoxic, full curve, poor fit] | –
62 | CCOC(=O)c1cnc(Nc2nc3ccccc3o2)nc1CSC(=S)N(CC)CC | inconclusive: 0.259 µM [cytotoxic, full curve, poor fit] | –
63 | CCc1ccc(OC(C)C(=O)N2CCC(c3nc4ccccc4s3)CC2)cc1 (configuration not stated) | active: 14.6 µM | –
64 | c1ccc(CSc2nnc(-c3cccs3)n2Cc2ccco2)cc1 | inconclusive: 9.2 µM [cytotoxic, partial curve] | –
65 | O=C(Oc1ccc(Br)cc1C(=S)N1CCOCC1)c1ccc(F)cc1 | inconclusive: 32.6 µM [cytotoxic, single point] | –
66 | COc1ccc(NC(=O)C2CC(=O)N(CCc3ccc(Cl)cc3)C2)cc1 (configuration not stated) | inconclusive: 29.1 µM [cytotoxic, single point] | –
67 | CSc1ncccc1C(=O)N1CCCC(C(=O)c2cc(F)ccc2F)C1 (configuration not stated) | inconclusive: 23.1 µM [cytotoxic, partial curve, poor fit] | –
68 | CC1(C)C(=O)OC(/C=C/c2cccc([N+](=O)[O-])c2)C(C)(C)C1=O (configuration not stated) | inconclusive: 20.6 µM [cytotoxic, single point] | –
69 | O=C(NCc1ccccc1CN1CCCC1)c1ccc(S(=O)(=O)Nc2ccccc2)cc1 | inconclusive: 11.6 µM [cytotoxic, partial curve] | –
70 | CC(C)(C)N1C(=O)c2ccc(C(=O)Nc3ccc(-c4nc5ccccc5[nH]4)cc3)cc2C1=O | inconclusive: 29.1 µM [rising, single point] | –
71 | Cc1coc2cc3oc(=O)c(CCC(=O)NC4CC4)c(C)c3cc12 | inconclusive: 32.6 µM [cytotoxic, single point] | –
72 | CN1CCN(NC(=O)c2cn(-c3ccccc3)nc2-c2cccc(Br)c2)CC1 | inconclusive: 9.2 µM [cytotoxic, partial curve, poor fit] | –

Source: PubChem BioAssay AID1347076 (National Center for Advancing Translational Sciences (NCATS), 2019)
